At least one compound was matched to its structure with a doubt left.
How the values were obtained:
Type in all cases: cell-based, human
[1] = test system: XALD fibroblasts; assay: Inhibition studies: ATP5B immunofluorescence of drug-induced mitochondrial biogenesis; conditions: inhibitor added before 4PBA, HU, TSA or SFN
Protocol: Performed as described in Watkins et al., 1995 using 4% formaldehyde, 1% Triton X-100, primary antibody anti-ATP5B (Millipore, Billerica, Mass.) or anti-ABCD3 (Invitrogen, Carlsbad, Calif.), and secondary antibody sheep anti-mouse IgG FITC-conjugated (Santa Cruz Biotechnology, Santa Cruz, Calif.) or goat anti-rabbit IgG rhodamine-conjugated (Jackson ImmunoResearch, West Grove, Pa.).
Antimycin A (10 ng/mL), LY294002, PD98059, RO-31-8425, SB203580, SP600125, and L-NAME were obtained from Sigma. Compound C was from EMD Biosciences (Darmstadt, Germany). Human fibroblasts were treated with each inhibitor. Then, 45-75 min later, either 4PBA, HU, TSA, or SFN was added. Cells were stained four to six days after treatment with one of the small molecules. As a control for inhibitors dissolved in DMSO, fibroblasts were treated with an equivalent amount of DMSO in the absence of inhibitor. […]
In FIGS. 2A-B, the JNK inhibitor SP600125 (10 μM+inh) was utilized. […] XALD fibroblasts were treated with each drug for four days with or without SP600125. (400× magnification). […] Normal human fibroblasts were treated with each of the small four molecules with or without SP600125 for six days. Quantitative in-cell western analyses were performed using anti-ATP5B.

[2] = test system: K562 cells; assay: Flow cytometric analysis of mitochondrial mass (Mitotracker); conditions: effect of JNK inhibitor, four days, n=2; FIG. 2C
Protocol: (§1) Fibroblasts (70-95% confluent) were treated with 5 mM 4PBA (1 mM for JNK inhibition studies), 600 μM HU, 200 nM TSA, or 5 μM SFN unless otherwise specified.
K562 cells were incubated with 50 nM Mitotracker Green FM, 300 nM Mitotracker Deep Red 633 (Invitrogen), or PBS as a negative control for 15 min at 37° C. or stained with anti-Pex14 using Caltag Fix and Perm reagents (Invitrogen) following the manufacturer's instructions. Stained cells were suspended in 0.5 mL of 1% paraformaldehyde/PBS and subjected to flow cytometric analysis (FACScan machine, Becton Dickinson, Franklin Lakes, N.J.).
(§2) K562 cells were treated with SB and HU for four to ten days. […] (n≧3 unless otherwise noted).
(§3) To determine whether the induction of mitochondrial biogenesis by SB or HU treatment was necessary for the induction of HbF-producing cell production, K562 cells were treated with SB or HU in the presence or absence of AA. […] After two to four days of drug treatment with or without AA, mitochondrial mass was measured using Mitotracker, a mitochondrial stain. Fold change (drug treated/control) is shown. […] After four days of drug treatment with or without AA, cells were stained with DAF. […] After eight to ten days of drug treatment, peroxisome proliferation was measured using an antibody against the peroxisomal membrane protein, PEX14 and a FITC-labeled secondary antibody. […]

[3] = test system: K562 cells; assay: HbF-producing cell production (DAF staining); conditions: effect of JNK inhibitor, four days, n=2; FIG. 2D
Protocol: as §1
K562 cells were suspended in 1.1 mL media and 240 μL of DAF [working solution 50 μL 2,7diaminofluorene (DAF) stock (50 μg DAF in 5 mL 90% glacial acetic acid), 50 μL 30% hydrogen peroxide, and 2.5 ml 200 mM Tris-HCl, pH 7.0]. DAF stained hemoglobinized cells were scored using a hemocytometer.
as §2
as §3, with “DAF. The relative number of cells producing HbF (DAF stained cells) were plotted.” for “DAF.”, “antibody. Fold change (drug treated/control) is shown.” for “antibody.”

[4] = test system: FL-SMN mRNA; assay: RT-PCR of FL-SMN and total SMN mRNA in spinal muscular atrophy fibroblasts; conditions: effect of co-treatment with stress pathway inhibitor; FIG. 8B
Protocol: Following the manufacturer's protocols, DNase I-treated cDNA was synthesized using Superscript III or Thermoscript reverse transcriptase (Invitrogen). PCR reactions were performed in duplicate on the Roche Lightcycler 3.5 (Basel, Switzerland) or the Bio-Rad iCycler (Hercules, Calif.) using Quantitech SYBR green PCR mix (Qiagen, Valencia, Calif.). GeNorm software calculated a normalization factor for each sample using the relative amounts of at least two of the following reference genes, β2-microglobulin, […], actin, and/or eukaryotic elongation factor 1A (Vandesompele et al., 2002). Primers for the various experiments described herein are listed below.
Type I and type III spinal muscular atrophy (SMA I or SMA III) fibroblasts were treated with SFN for the indicated times. […]
To determine which stress pathways are necessary for the increase in FL-SMN production, spinal muscular atrophy fibroblasts were co-treated with SFN and either SP600125, an inhibitor of the JNK pathway (Bennett et al., 2001), 3-methyladenine, an inhibitor of the autophagy pathway (Seglen et al., 1982), antimycin A, a mitochondrial inhibitor (Ranganathan et al., 2009), or sirtinol, an inhibitor of SIRT1 activity (Grozinger et al., 2001). […] Therefore, the potential involvement of SIRT1 in the therapeutic effects of these drugs by inhibition studies was evaluated.

Row | Structure (SMILES) | Inhibits Mitochondrial Biogenesis? [1] | HU-induced mitochondrial biogenesis [2] | HU-induced HbF-producing cell production [3] | increase in FL-SMN transcript levels in SFN-treated spinal muscular atrophy fibroblasts [4]
1 | O=c1cc(N2CCOCC2)oc2c(-c3ccccc3)cccc12 [LY294002] | no |  |  | 
2 | Oc1c2ccccc2c2c3c(cccc13)N=N2 [SP600125] | yes | blocked | blocked | prevented
